Reference: the supplement of paper PMC11098740
Some of the results follow. Many values rest on one well or one pass, so single values are uncertain.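 Pooled together, 41 HAP1 clones carry intronic fluorescent tags on 61 cancer-associated proteins, and each clone is recognized by its imaging pattern. Measurements are benchmarked against DMSO-treated control wells. dBET6, a BRD4 degrader, served as the positive control.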

target: BRD4 (intron 10 mScarlet tag, HAP1) (UniProt O60885); assay: BRD4 median nuclear fluorescence intensity change vs DMSO (log2 fold change); higher = more BRD4 protein; conditions: 6 h

Row | SMILES | BRD4 median nuclear fluorescence intensity change (log2)
1 | CCCS(=O)(=O)Nc1ccc(F)c(C(=O)c2c[nH]c3ncc(-c4ccc(Cl)cc4)cc23)c1F [vemurafenib] (20 µM) | -0.0123
2 | NC(=O)OCC(COC(N)=O)c1ccccc1 [felbamate] (10 µM) | -0.025
3 | O=C(O)C(=O)O.[NH-][C@@H]1CCCC[C@H]1[NH-].[Pt+2] [oxaliplatin] (20 µM) | -0.0146
4 | Nc1nc(F)nc2c1ncn2[C@@H]1O[C@H](COP(=O)(O)O)[C@@H](O)[C@@H]1O [fludarabine phosphate] (20 µM) | 0.192
5 | CC[C@H]1OC(=O)[C@H](C)[C@@H](O[C@H]2C[C@@](C)(OC)[C@@H](O)[C@H](C)O2)[C@H](C)[C@@H](O[C@@H]2O[C@H](C)C[C@H](N(C)C)[C@H]2O)[C@](C)(O)C[C@@H](C)CN(C)[C@H](C)[C@@H](O)[C@]1(C)O [azithromycin] (10.0002 µM) | -0.00176
6 | Nc1ccn([C@H]2CC[C@@H](CO)O2)c(=O)n1 [zalcitabine] (9.9996931 µM) | -0.00781
7 | C[C@]12CC[C@@H]3c4ccc(O)cc4C[C@@H](CCCCCCCCC[S+]([O-])CCCC(F)(F)C(F)(F)F)[C@H]3[C@@H]1CC[C@@H]2O (stereo partly specified) [fulvestrant] (20 µM) | -0.0225
8 | CC(=O)Nc1cccc(-n2c(=O)n(C3CC3)c(=O)c3c(Nc4ccc(I)cc4F)n(C)c(=O)c(C)c32)c1 [trametinib] (10 µM) | 0.0828
9 | CCCC(CCC)C(=O)O [valproic acid] (10 µM) | 0.0215
10 | NC(=O)NO [hydroxyurea] (20 µM) | 0.071
11 | CN1C(CCl)Nc2cc(Cl)c(S(N)(=O)=O)cc2S1(=O)=O (stereo unspecified) [methyclothiazide] (9.99974 µM) | 0.0791
12 | CC/C(=C(\c1ccccc1)c1ccc(OCCN(C)C)cc1)c1ccccc1 [tamoxifen] (20 µM) | 0.0678
13 | Nc1ccn([C@@H]2O[C@H](CO)[C@@H](O)[C@@H]2O)c(=O)n1 [cytarabine] (0.316228 µM) | 0.187
14 | CN1CCN(CCCN2c3ccccc3Sc3ccc(C(F)(F)F)cc32)CC1 [trifluoperazine] (10.00057696 µM) | 0.115
15 | Cc1cc(C)cc(OCC2CNC(=O)O2)c1 (stereo unspecified) [metaxalone] (10 µM) | 0.0772
16 | Cc1[nH]c(=O)c(C#N)cc1-c1ccncc1 [milrinone] (10.0021 µM) | -0.031

Reprinted from the listing for reference:
Row | SMILES | BRD4 median nuclear fluorescence intensity change (log2)
5 | CC[C@H]1OC(=O)[C@H](C)[C@@H](O[C@H]2C[C@@](C)(OC)[C@@H](O)[C@H](C)O2)[C@H](C)[C@@H](O[C@@H]2O[C@H](C)C[C@H](N(C)C)[C@H]2O)[C@](C)(O)C[C@@H](C)CN(C)[C@H](C)[C@@H](O)[C@]1(C)O [azithromycin] (10.0002 µM) | -0.00176
6 | Nc1ccn([C@H]2CC[C@@H](CO)O2)c(=O)n1 [zalcitabine] (9.9996931 µM) | -0.00781

(list continues)

Row | SMILES | BRD4 median nuclear fluorescence intensity change (log2)
17 | N[C@@H](CC(=O)N1CCn2c(nnc2C(F)(F)F)C1)Cc1cc(F)c(F)cc1F [sitagliptin] (10.0003 µM) | 0.0329
18 | COc1c(OCCCN2CCOCC2)ccc2c1N=C(NC(=O)c1cnc(N)nc1)N1CCN=C21 [copanlisib] (10 µM) | 0.0971
19 | CC(C)(C#N)c1cc(Cn2cncn2)cc(C(C)(C)C#N)c1 [anastrozole] (20 µM) | 0.0203
20 | Nc1nc2c(ncn2COC(CO)CO)c(=O)[nH]1 [ganciclovir] (10 µM) | 0.0193
21 | NNc1nncc2ccccc12 [hydralazine] (10 µM) | 0.0119
22 | N#CC[C@H](C1CCCC1)n1cc(-c2ncnc3[nH]ccc23)cn1 [ruxolitinib] (20 µM) | 0.316
23 | CC(C(=O)O)c1cccc(Oc2ccccc2)c1 (stereo unspecified) [fenoprofen] (10 µM) | 0.0129
24 | N#Cc1ccc(C(c2ccc(C#N)cc2)n2cncn2)cc1 [letrozole] (20 µM) | 0.0397
25 | OCCN1C[C@H](O)[C@@H](O)[C@H](O)[C@H]1CO [miglitol] (10 µM) | 0.00264
26 | CC1=C(/C=C/C(C)=C\C=C\C(C)=C\C(=O)O)C(C)(C)CCC1 [alitretinoin] (20 µM) | 0.0795
27 | C/C(O)=C(\C#N)C(=O)Nc1ccc(C(F)(F)F)cc1 [teriflunomide (a77 1726)] (10 µM) | 0.114
28 | COc1cc(N)c(Cl)cc1C(=O)NC1CCNCC1OC (stereo unspecified) [norcisapride] (7.74983 µM) | 0.0343
29 | CC[C@]1(O)C[C@H]2CN(CCc3c([nH]c4ccccc34)[C@@](C(=O)OC)(c3cc4c(cc3OC)N(C=O)[C@H]3[C@@](O)(C(=O)OC)[C@H](OC(C)=O)[C@]5(CC)C=CCN6CC[C@]43[C@@H]65)C2)C1 [vincristine] (0.246914 µM) | 0.0571
30 | C[C@]12C=CC(=O)C=C1CC[C@@H]1[C@@H]2[C@@H](O)C[C@@]2(C)[C@H]1CC[C@]2(O)C(=O)CO [prelone] (1.1755 µM) | 0.147
31 | Nc1c2c(nc3ccccc13)CCCC2 [tacrine] (9.99926 µM) | 0.00541
